In article PMC9601220 one finds binding data, which are given here for two molecules.

Results are given in words; binding and its absence hold for the method and conditions named. In cells and extracts the contact can be indirect. A yes stands for co-enrichment or nearness to the bait. Other partners may have been found.

For this assay, the target named is Nup434::TurboID-HA (P. berghei). As to the kind of experiment: proximity labelling; TurboID fused to the C-terminus of the bait at its endogenous locus in P. berghei; schizonts after overnight culture, no added biotin (mouse serum and RPMI levels); lysis in 8M urea with 1 mM DTT, biotinylated proteins on magnetic streptavidin beads, LC-MS/MS; 2 biological replicates, proteins of the wild-type control excluded.

B1: Nup138 (protein, UniProt A0A509AFD3 1-1237)
chain: MNNNGGNANNPNMWGMPNNNLGNNSFFGTNMNSQNGLNENNNNSLNNQTNMTGNNMFFGASVNNQNNNIFENNMNSQNNVGKSDNSIFGTPSNDLNKSNNTSLFGSLSSNTSVNNNTTNAFNANLFNAAKKDVYPGFTRSLLGNSPNNSSNIFKQSTLGSSIALGSQLNEDRGSESGGLFSKEQLEAAKQIFANSSSGNLSSFNNKTNNNKLTFSGGFSSSSSAFSKNNINPFQSMAMQATNQNDKSSLMNNNMNKLFFGDTNNNNINGGGKINPFGMPTVNNLTSPNKLNEIGPGGFSQAIKSFNPNTNSLFSSQTNTGSTASTSFNNNDSSQKSLFSNFGGGFNSFAKTNTNDIFKKNTTENATNNNNTNTSFSFLPSFNGSKNNDNSFSLNSFNATNNEKSSGSLFSFNNNNTNTASPDFSLFSNNNINKTTTPDNSINSSINKDAENKAIEKSNQNIGESKDSGITSVVSESFKANDASGTDKSIFSKETEAEKDKEKAGDKNEQNDNDKEKDETKETNVTLEIKKDENDSTKNHDEKLIDHKSESKENQNNENEKDDKNDDKKYETSDNAKDNKDGTNNDKMSLFGKSLTFNSSFFKTSTANLTDKKSNLESSSSLNNDTENKKEKTGFFFGNDDKNENTNTSTESKWDFSKFGNNNLFNKEKESFSFSFKETSTTDKKNESTNLKDNKKEEDTKPSVSTESKDKNKEATATPKKSIFNFGIKSNFLNQSSKDSKDDNINESNKEKDNEKPTKGAETDETDADGTKDHNTTGVYSKLDSNDVGDKKKIWKLSFTKKKDQTSTDAQKELKENELKNNNLLNKGPSLQPSDITLGKGSLFGSFTKDNEKKNEDTKNTKSDHFSNINSFGKNNTSISFNQSSLFGKPDEKGNTLFSSSNNTFQFFNSSQNDKKKTEFQTKTQNIPEIKNNQNADDEDVNNVSNLINFISLEDRKKNVYINNNAQCDDENHEKTYISSNLKSNNNNETSHRSQTANFQLKETKGTLRMDNNDDYADFNDIDFINGQQNLEINMEHQRQLENDRKSVENNIKTNECFLKKNLDQEMAVDVINNLSSFVKNKINFMNYCSNEILDIYNKVSHYEKMYALISEDQIKIEKKQESLEKRLRLIQSEQCDMLSLLNELDNENSLTFLKVLNQKNLNKDDSINNKNLYLDIDKFEKLADKIENLEELIDSIHNTSKHDIVNDLVNKCYTNEINCEQIEKQLNGYSHELRNMK
Consider B1, for which the binding result is reported as “binds”.

B2: Nup176 (protein, UniProt A0A509AYN3 1-1469)
chain: MNDFSGEYDFMQRIHKIEGHNNNDYGINKDNLKGGDIIKGKDDVLLEKEKYEKDFYLKSKYDKYNNTLNGFEKDDKFSYLKRLKKENELKKRESSSKKSNINELVKINEIVYYIHANKKNVYEYITNQTDLENNYYQIEERPNNLSRNIIKNNEEYIYLNDNAYYKLKINRDEKDGREEKEDEHGIESMNLKYSLDGNKSTIIENIIESDNILIHILHVLLSFKNCVKGIFLFLSKIFHFNFLDYNNIKNYSLTNYFDQNVKEYMKYLKKHEDSRIINHDFLLRRKYITPHFIYNSVDCNYNTNDNGIVILSSILPFIHSFDYDYKLKETRNREQDLEYVLNGEKKKYFGKTGIFEYLKKIKNMFINKLNRSIGNDNNNNNENGDGMGNDEGAWGNDNNEYSEFLKKYENCINEKGELIQDILFAGKAQMIFINFKQLENNFNNIIGNIEIKNEKIHVSNLILGYEKREHIKYTDILISNILKNIKKKYPDIAINDENPKQFIYDDNEFSDKLMGENNNTYGGNHINNMNSNDESNISLTEHIDNNIYKRELYKLSDLKEYVYSAPSHLMRDQKNNCEYVTCVSFDNNSNNCNLINNFVLGYNTGKIEYIYGKIVYNNISHCDLLIDYYSNKNKKFSYELCKRIYLNGSVIKIGFAPNVFFCLILTSKTLYICNFFYFSIYEIPNVCYNSRFVNFLWINNNSYCIFNDNGYIYLYEKNSKSDGLNSFSLVKCFFIDQNIYYNSICEYHLYSHSIYLYTGEIEKRRQKKNVTHFFKKKKIRMHKRYSDYFYKYDCNFIIIDLNSYMGNNCENNKSSDMLVRGLLKDNVTDVEGNMKQIKILEMLIENGANLEEEDANFENMLNINIKDFNNYISTIKDANTKLYMNDSGDERKDMIDYNKENDKFSIKNIFVNYIQDVKRHLYNLKNENIVNVLLPRYYSSGDDYSHKNFLNVRFFTIEKLDNKHLIALDTETDYVYIYKIRKNVHLDYNSIEALKNNPYQTNRNPLHMLYSTYMKKEPILKDEWKIYNEYIYVNTKKLKKYIKYNLLYIIKNHKKIFFPLHVYVINTKYNENEYLLFIKWATIKNSFVYSSYSSLNKVSKMNDYFNNEDEKILKVLENPKNIFLYNINDENRNVGGRMGYPYMPNNDILRSLSGKNKYYDNDYMSDNGNNYISYNRSGNKPNEYRENFSNKMKNFTNRISHEDFMSKTPIKNPERNFFTSGVGNNMGINETNPILYKRRGRFTENDIYNEYYMNQNNKDGNYSNYLNENKKLNESDKKWSYLKKINIFSKKDEDLINDNYGNHRSNYNNMDPKNLQYKNSHMYNLKNDNIFNEMKNSNLYSSPNDIKFNRLHDNQDGPKIPNGDNNMNEYYYMNNTNKYKTSNINNNYDSYVLKNDLYNFRNNININENNNNANNNYSYGNTDFYRAPNDTYYRGNQEFNANVYNAGYGSDSNHIHHESPYRSRFRNYS
For B2, the binding entry was “binds”.
